These are literature values, as cited in patent US12349704B2, “High quality cultured meat, compositions and methods for producing same” (ALEPH FARMS LTD., priority 2018, dated 2025).

Molecules are shown by their SMILES.

The conditions of the data set: crystalline powder.

As for `COC1=C(OC)C(=O)C(C/C=C(\C)CC/C=C(\C)CC/C=C(\C)CC/C=C(\C)CC/C=C(\C)CC/C=C(\C)CC/C=C(\C)CC/C=C(\C)CC/C=C(\C)CCC=C(C)C)=C(C)C1=O` [CoQ10, Coenzyme Q10], the solubility in water result was “insoluble in water”.
